This is one part of the list. These are further read-outs of the screen, such as a control signal, another cell line or another target. No call is given for them. The list favours compounds with an active or inconclusive main result. Words in brackets tell the shape of the fitted curve; partial curves, single points and poor fits give uncertain potencies.
Test: qHTS Assay for Lipid Storage Modulators in Drosophila S3 Cells;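 for cell number change: cells counted by Cell Tracker Red CMTPX staining in the red channel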
Details: BODIPY lipid droplet fluorescence, 18-24 h; for cell number change: measured here: cell count max response, cells fed with added oleic acid
Outline: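 Drosophila S3 cells got compounds at several concentrations plus oleic acid (400 uM solution). Laser-scanning cytometry with 488 nm excitation read lipid droplets at 500-530 nm and cells at 575-640 nm. Percent activity was relative to 20 uM Triacsin C.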

[1] = measured here: cell number channel AC50, cells fed with added oleic acid
[2] = measured here: lipid fluorescence (Fed channel) AC50, cells fed with added oleic acid

SMILES | cell number change [%] | AC50 [1] | AC50 [2]
CCCCCC[N+](C)(C)CC/C=C1/c2ccccc2Sc2ccc(Cl)cc21 | -70.5 | 25.9 µM [falling, partial curve] | 32.6 µM [falling, partial curve]
COc1ccc(NC(=O)CC2C(=O)N(C)C(=S)N2Cc2ccco2)cc1 (centres undefined) | -15.6 |  | 
Cc1ccc(NC(=O)c2sc3ncn(CC(=O)N4CCN(c5ccccn5)CC4)c(=O)c3c2C)cc1F | -19.2 |  | 
Cc1ccc2oc(-c3ccccc3)c(C(=O)O)c(=O)c2c1 | -9.38 |  | 7.31 µM [falling, single point]
CCn1c(SCC(=O)NCc2ccc3c(c2)OCO3)nnc1-c1ccncc1 | -15.7 |  | 0.92 µM [falling, full curve, poor fit]
O=C(CSc1ncnc2c1cnn2-c1ccccc1)NC1CCCC1 |  | 4.61 µM [rising, single point] | 
O=C1CCc2cc(S(=O)(=O)NCc3ccc(F)cc3)cc3c2N1CC3 |  | 1.03 µM [falling, single point] | 
O=C(NC1(C(=O)NC2CCCC2)CCCCC1)c1ccc2c(c1)OCO2 | 11.5 | 0.00517 µM [rising, full curve, poor fit] | 
CSc1ccc(S(=O)(=O)NCc2ccc(Cl)cc2)cc1 |  |  | 0.58 µM [falling, single point]
COc1ccc(C2C3=C(CC(C)(C)CC3=O)N(C)C3=C2C(=O)CC(C)(C)C3)cc1OC | -23.5 |  | 
CC1CN(C2CCN(C(=O)c3ccccc3)CC2)CC(C)O1 (centres undefined) | -30 | 0.0259 µM [falling, full curve, poor fit] | 3.26 µM [falling, full curve]
O=C(N/C(=C\c1ccco1)C(=O)N1CCC(O)CC1)c1ccccc1 | 5.26 |  | 
Cc1ccc(C(=O)COC(=O)c2ccc(O)cc2)cc1 | 9.77 | 2.91 µM [rising, partial curve, poor fit] | 5.17 µM [rising, single point]
CCN(CC)c1ccc2cc(C(=O)Nc3cccnc3N3CCOCC3)c(=O)oc2c1 | 5.26 |  | 
CCS(=O)(=O)N1CCN(C2CCC(c3ccccc3)CC2)CC1 (centres undefined) | 35 | 29.1 µM [rising, single point] | 6.51 µM [falling, single point]
O=C(N/N=C/c1ccc2c(c1)OCO2)c1cccc(NC(=O)c2ccccc2Cl)c1 | 17.5 |  | 
O=C(CCCCCNC(=O)c1ccccc1Cl)N/N=C/c1ccco1 |  | 6.51 µM [rising, partial curve, poor fit] | 
CC(=O)N1CCCc2ccc(NS(=O)(=O)c3ccc(C)c(C)c3)cc21 | -12.8 |  | 
CCOc1ccc(/C(O)=C2/C(=O)C(=O)N(c3ncccn3)C2c2ccc(C)cc2)cc1 (centres undefined) | -19.5 |  | 0.461 µM [falling, full curve]
COc1ccc(Cl)cc1NC(=O)CN(C)C(=O)c1ccc2c(c1)OCCO2 | 128 | 8.2 µM [rising, partial curve] | 

SMILES | cell number change [%] | AC50 [1] | AC50 [2]
CCN(CC(=O)Nc1ccc(Br)cc1)CC(=O)Nc1cc(C)on1 | -25 | 4.11 µM [falling, single point] | 
Cn1nc(C(=O)N2CCN(c3cccc(Cl)c3)CC2)c2c1-c1ccccc1S(=O)(=O)C2 | -8.73 |  | 0.092 µM [rising, full curve, poor fit]
CCOc1ccc2[nH]c3nc(SCC(=O)NC4CCCC4)nnc3c2c1 | -5.65 |  | 
Cn1c(=O)c2c(nc(NCc3ccc4c(c3)OCO4)n2C)n(C)c1=O | 14.3 |  | 3.26 µM [rising, single point]
COc1ccc(S(=O)(=O)N2CCC(C(=O)N(CC(C)C)C3CCS(=O)(=O)C3)CC2)cc1OC (centres undefined) | -18.4 |  | 0.103 µM [falling, full curve, poor fit]
CC[C@@H](C(=O)[C@@H](C)[C@@H](O)[C@H](C)CCc1ccc(C)c(O)c1C(=O)O)[C@H]1O[C@](CC)([C@H]2CC[C@](O)(CC)[C@H](C)O2)C[C@@H]1C | -34.1 | 1.64 µM [falling, partial curve] | 3.26 µM [falling, partial curve, poor fit]
CC(C)CCn1c2ccccc2c2cc(CC(N)=O)ccc21 | -4.61 |  | 13 µM [falling, partial curve, poor fit]
COc1ccc(N(CC(=O)N2CCCCCC2)S(=O)(=O)c2ccc(OC)c(OC)c2)cc1 | 17.5 |  | 
O=C(Nc1ccc(F)cc1)c1ccc(Br)c(S(=O)(=O)N2CCOCC2)c1 | -12.4 |  | 
COCCNS(=O)(=O)c1cc(OC)ccc1OC | 33.4 |  | 
CC1(C)CC(=O)C=C(Nc2ccccc2NC(=O)c2cnccn2)C1 |  |  | 0.82 µM [falling, single point]
O=C(Nc1cn(-c2ccccc2)nc1-c1cccs1)c1ccco1 | -19.2 |  | 0.461 µM [rising, full curve, poor fit]
O=c1[nH]c2ccc(S(=O)(=O)N3CCCCC3)cc2s1 | 11.8 |  | 29.1 µM [rising, single point]
COc1cc(NC(=O)c2ccccc2F)c(OC)cc1NC(=O)CN1CCOCC1 | -31.5 | 29.1 µM [falling, single point] | 29.1 µM [falling, single point]
CCOc1cccc(C2C(C#N)=C(N)Oc3cc(C)[nH]c(=O)c32)c1OCC (centres undefined) | 10.2 | 6.51 µM [rising, single point] | 
COC(=O)[C@@H](NC(=O)CCc1nnc(-c2ccsc2)o1)C(C)C | -9.93 |  | 7.31 µM [falling, partial curve]
C/C(=N\Nc1nc2ccccc2s1)c1ccc2c(c1)OCO2 |  | 0.58 µM [falling, single point] | 3.26 µM [rising, partial curve, poor fit]
CC(=O)N1CCN(C(=S)c2ccc(-c3ccc(Cl)cc3)o2)CC1 | -39.4 | 9.2 µM [falling, partial curve, poor fit] | 11.6 µM [falling, partial curve]
CN1CCN(C(=O)CCc2ncc(C(F)(F)F)cc2Cl)CC1 | -38.5 | 16.4 µM [falling, single point] | 

Three structures from above, sorted by molar mass, ascending.
SMILES | cell number change [%] | AC50 [1] | AC50 [2]
C/C(=N\Nc1nc2ccccc2s1)c1ccc2c(c1)OCO2 |  | 0.58 µM [falling, single point] | 3.26 µM [rising, partial curve, poor fit]
O=C(Nc1cn(-c2ccccc2)nc1-c1cccs1)c1ccco1 | -19.2 |  | 0.461 µM [rising, full curve, poor fit]
COC(=O)[C@@H](NC(=O)CCc1nnc(-c2ccsc2)o1)C(C)C | -9.93 |  | 7.31 µM [falling, partial curve]
